# Measurements: PubChem BioAssay AID248 (DTP/NCI, 2004)
# The list shows only some results of the screen, not a fair sample: it gathers tests that were run many times, whatever their T/C, doses with no T/C, and many T/C values between a quarter and a half above the control. Other doses and runs of a compound stand elsewhere. T/C is the treated group as % of the vehicle group. Some doses have a count of surviving animals in place of a T/C: the source files T/C as zero there, which appears to mark a toxic dose or a test without result, not a measured value. Some doses without a T/C left all or most animals alive at the check, yet need not have been tolerated: the source hardly ever lists a survival T/C far under the control, and the zero likely stands for such cases as well. Survivors were counted at the toxicity check, usually on the fifth day, unless a day is given; later deaths do not show. Schedule codes are those of the source, read here as Q, the interval in days (D) or hours (H), X, the number of doses. Signs of the kind (2×) count equal records among those shown. Some doses were run more than once; the values are given in rising order. Some schedules carry Z or #; the key to these is not given. Where survival is the endpoint, the PubChem record calls one and a half times the control and up active, and a quarter to a half above the control has no call in these data; cut-offs in other NCI protocols can differ. Some T/C values carry the count of animals alive at the toxicity check (mostly the fifth day); without a count, all were alive then.
# Tested on: L1210 leukemia ip in BDF1 mice, survival T/C
# Assay: NCI In Vivo Anticancer Drug Screen. Data for tumor model L1210 Leukemia (intraperitoneal) in B6D2F1 (BDF1) mice
# Conditions: T/C endpoint: mean survival time, higher T/C = longer survival
# [1] = dose: 400.0 mg/kg/injection, schedule: Q01DX009 (ip), vehicle: Klucel (hydroxypropylcellulose) (HPC)
# [2] = dose: 400.0 mg/kg/injection, schedule: Q01DX001 (ip), vehicle: saline
# [3] = dose: 400.0 mg/kg/injection, schedule: Q04DX003 (ip), vehicle: saline
# [4] = dose: 100.0 mg/kg/injection, schedule: Q01DX009 (ip), vehicle: saline
# [5] = dose: 200.0 mg/kg/injection, schedule: Q01DX009 (ip), vehicle: saline
# [6] = dose: 400.0 mg/kg/injection, schedule: Q01DX009 (ip), vehicle: saline
# [7] = dose: 100.0 mg/kg/injection, schedule: Q01DX009 (ip), vehicle: Klucel (hydroxypropylcellulose) (HPC)
# [8] = dose: 50.0 mg/kg/injection, schedule: Q01DX009 (ip), vehicle: saline
# [9] = dose: 200.0 mg/kg/injection, schedule: Q01DX009 (ip), vehicle: Klucel (hydroxypropylcellulose) (HPC)
structure (smiles),measurement,setting,value
O=C(c1ccccc1)C1CNCCC1(O)c1ccccc1 (configuration not stated),survivor count,"dose: 300.0 mg/kg/injection, schedule: Q04DX003 (ip), vehicle: acetone",5 of 6
CN(C)C(=S)SCN1CCCCC1,survivor count,[1],0 of 6
COc1ccc(/C=N/NC(=O)c2ccco2)cc1OC,survivor count,"dose: 200.0 mg/kg/injection, schedule: Q01DX001 (ip), vehicle: other",4 of 4
CCCOC(=O)CCl,survivor count,"dose: 200.0 mg/kg/injection, schedule: Q01DX001 (ip), vehicle: saline",0 of 4
same,survivor count,[2],0 of 4
O=P(c1ccccc1)(N1CCCC1)N1CCCC1,survivor count,[3],2 of 6
Cc1c(C(C)(C)C)cc(C(C)(C)C)c(O)c1[N+](=O)[O-],survivor count,"dose: 100.0 mg/kg/injection, schedule: Q01DX001 (ip), vehicle: carboxymethylcellulose (CMC)",3 of 3
CC(C)C[As](C)(=O)O,T/C,[4],132 % of control
same,survivor count,[5],2 of 6
same,survivor count,[6],0 of 6
CC(Cc1ccccc1)NCCn1cnc2c1c(=O)n(C)c(=O)n2C (configuration not stated),survivor count,[4],0 of 6
N#Cc1cn(-c2ccc(Cl)cc2)c2ncccc12,survivor count,"dose: 100.0 mg/kg/injection, schedule: Q01DX001 (ip), vehicle: saline",3 of 3
same,survivor count,"dose: 200.0 mg/kg/injection, schedule: Q01DX001 (ip), vehicle: saline with Tween-80",3 of 3
same,survivor count,"dose: 400.0 mg/kg/injection, schedule: Q01DX001 (ip), vehicle: saline with Tween-80",3 of 3
COc1ccc(CN2CCCN(Cc3ccc(OC)cc3)C2c2c(O)ccc3ccccc23)cc1,survivor count,"dose: 80.0 mg/kg/injection, schedule: Q01DX001 (ip), vehicle: acetone",2 of 6
same,survivor count,"dose: 100.0 mg/kg/injection, schedule: Q01DX001 (ip), vehicle: acetone",0 of 4
same,survivor count,"dose: 200.0 mg/kg/injection, schedule: Q01DX001 (ip), vehicle: acetone",0 of 4
same,survivor count,"dose: 400.0 mg/kg/injection, schedule: Q01DX001 (ip), vehicle: acetone",0 of 4
CC(C)=CC(=O)CC(O)(C(F)(F)F)C(F)(F)Cl (configuration not stated),survivor count,[5],6 of 6
O=[N+]([O-])c1ccc(OS(=O)(=O)CS(=O)(=O)Oc2ccc([N+](=O)[O-])cc2)cc1,survivor count,[2],1 of 6
O=C1C(Cl)=CC(=NS(=O)(=O)c2ccccc2)C=C1Cl,survivor count,"dose: 25.0 mg/kg/injection, schedule: Q01DX009 (ip), vehicle: saline with Tween-80",2 of 6
C1CCC(C2CCCC(C3CCCC[N-]3)[N-]2)[N-]C1.[Cl][Pt] (configuration not stated),survivor count,[4],2 of 6
same,survivor count,[5],0 of 6
CO[C@H](C)[C@](O)(C(=O)OCC1=CCN2CC[C@@H](O)[C@H]12)C(C)C,T/C,"dose: 150.0 mg/kg/injection, schedule: Q01DX009 (ip), vehicle: saline",127 % of control
same,survivor count,"dose: 225.0 mg/kg/injection, schedule: Q01DX009 (ip), vehicle: saline",5 of 6 and 6 of 6
O=C(Nc1ccc(C2=NCCN2)cc1)c1cccc(C(=O)Nc2ccc(C3=NCCN3)cc2)c1[N+](=O)[O-],T/C,"dose: 15.0 mg/kg/injection, schedule: Q01DX Z (ip), vehicle: carboxymethylcellulose (CMC)",137 % of control
same,survivor count,"dose: 120.0 mg/kg/injection, schedule: Q01DX Z (ip), vehicle: carboxymethylcellulose (CMC)",0 of 6
C[N-]C.C[N-]C.[Cl][Pt+2][Cl],survivor count,[6],1 of 6
CN=C(NC)Nc1ccc(NC(=O)c2ccc(C(=O)Nc3ccc(NC(=NC)NC)cc3)cc2)cc1,T/C,"dose: 9.0 mg/kg/injection, schedule: Q01DX Z (oral), vehicle: carboxymethylcellulose (CMC)",127 % of control
same,T/C,"dose: 13.0 mg/kg/injection, schedule: Q01DX Z (ip), vehicle: carboxymethylcellulose (CMC)",125 % of control
same,T/C,"dose: 17.0 mg/kg/injection, schedule: Q01DX001 (ip), vehicle: carboxymethylcellulose (CMC)",135 % of control
same,T/C,"dose: 17.0 mg/kg/injection, schedule: Q01DX001 (ip), vehicle: other",128 % of control
same,T/C,"dose: 26.0 mg/kg/injection, schedule: Q01DX001 (ip), vehicle: carboxymethylcellulose (CMC)",143 % of control
same,T/C,"dose: 26.0 mg/kg/injection, schedule: Q01DX001 (ip), vehicle: other",131 % of control
same,T/C,"dose: 39.0 mg/kg/injection, schedule: Q01DX001 (ip), vehicle: carboxymethylcellulose (CMC)",146 % of control
same,survivor count,"dose: 53.0 mg/kg/injection, schedule: Q01DX Z (ip), vehicle: carboxymethylcellulose (CMC)",2 of 6
same,survivor count,"dose: 107.0 mg/kg/injection, schedule: Q01DX Z (ip), vehicle: carboxymethylcellulose (CMC)",1 of 6
same,survivor count,"dose: 215.0 mg/kg/injection, schedule: Q01DX Z (ip), vehicle: carboxymethylcellulose (CMC)",0 of 6
same,survivor count,"dose: 430.0 mg/kg/injection, schedule: Q01DX Z (ip), vehicle: carboxymethylcellulose (CMC)",0 of 6
CC1CCCN(C(=S)[S-])C1.CC1CCCN(C(=S)[S-])C1.[Zn] (configuration not stated),survivor count,"dose: 2.5 mg/kg/injection, schedule: Q04DX003 (ip), vehicle: saline",6 of 6
same,survivor count,"dose: 5.0 mg/kg/injection, schedule: Q01DX009 (ip), vehicle: saline",4 of 6
same,survivor count,"dose: 5.0 mg/kg/injection, schedule: Q04DX003 (ip), vehicle: saline",6 of 6
same,survivor count,"dose: 20.0 mg/kg/injection, schedule: Q01DX001 (ip), vehicle: saline",5 of 6
same,survivor count,"dose: 40.0 mg/kg/injection, schedule: Q01DX001 (ip), vehicle: saline",0 of 6
same,survivor count,"dose: 75.0 mg/kg/injection, schedule: Q01DX001 (ip), vehicle: acetone",0 of 6
same,survivor count,"dose: 150.0 mg/kg/injection, schedule: Q01DX001 (ip), vehicle: acetone",1 of 6
same,survivor count,"dose: 300.0 mg/kg/injection, schedule: Q01DX001 (ip), vehicle: acetone",0 of 6
O=C(Nc1ccc2c(c1)Cc1cccc(NC(=O)C(Cl)Cl)c1-2)C(Cl)Cl,survivor count,[7],6 of 6
CC[N+](C)(CC)CCNC(c1ccc(OC)c(OC)c1)C(Cl)(Cl)Cl (configuration not stated),survivor count,"dose: 150.0 mg/kg/injection, schedule: Q01DX001 (ip), vehicle: saline",3 of 6
same,survivor count,"dose: 300.0 mg/kg/injection, schedule: Q01DX001 (ip), vehicle: saline",0 of 6
N/C(=N\O)c1cn(C2OC(CO)C(O)C2O)c2ncncc12 (configuration not stated),T/C,[8],126 % of control
same,survivor count,"dose: 200.0 mg/kg/injection, schedule: Q01DX005 (ip), vehicle: saline",2 of 6
CCOC(=O)C(C(C)=O)C(c1ccc([N+](=O)[O-])cc1)C(C(C)=O)C(=O)OCC (configuration not stated),survivor count,"dose: 6.25 mg/kg/injection, schedule: Q01DX009 (ip), vehicle: saline",6 of 6
same,survivor count,"dose: 12.5 mg/kg/injection, schedule: Q01DX009 (ip), vehicle: saline",5 of 6
same,survivor count,"dose: 25.0 mg/kg/injection, schedule: Q01DX009 (ip), vehicle: saline",6 of 6 (2×)
same,survivor count,[8],6 of 6 (2×)
same,survivor count,[4],6 of 6 (2×)
same,survivor count,[5],6 of 6
same,survivor count,[6],6 of 6
N#Cc1ccc([N+](=O)[O-])cc1O,survivor count,[2],3 of 6
Cc1ccc(Cl)cc1NC(=O)Oc1ccc(Cl)cc1C,survivor count,[9],2 of 6
same,survivor count,[1],3 of 6
CCCNCCCN,survivor count,[4],3 of 6
same,survivor count,[3],0 of 6
CNC(=O)Oc1ccccc1C(=O)NCO,T/C,[7],"110 [5 of 6 alive], 111, 112, 112 % of control [2 of 3 alive]"
same,survivor count,"dose: 200.0 mg/kg/injection, schedule: Q01DX001 (ip), vehicle: Klucel (hydroxypropylcellulose) (HPC)",3 of 6
same,survivor count,[9],"0 of 3, 0 of 6, 4 of 6"
same,survivor count,"dose: 200.0 mg/kg/injection, schedule: Q04DX002 (ip), vehicle: Klucel (hydroxypropylcellulose) (HPC)",2 of 3
same,survivor count,"dose: 200.0 mg/kg/injection, schedule: Q04DX003 (ip), vehicle: Klucel (hydroxypropylcellulose) (HPC)",4 of 6
same,survivor count,[1],0 of 3 and 0 of 6
same,survivor count,"dose: 400.0 mg/kg/injection, schedule: Q04DX002 (ip), vehicle: Klucel (hydroxypropylcellulose) (HPC)",0 of 3 and 0 of 6
O=C(O)/C=C(\Cl)CC(=O)O,survivor count,[2],0 of 6
